Reference: PubChem BioAssay AID1259308 (NCATS, 2017)

- Screen: 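Knock-downs that increase output of a recombinant reporter protein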 (primary screen)
- Cell system: human HEK293 embryonic kidney cells stably expressing firefly luciferase (HEK-CMV-Luc2-Hygro)
- Reagents: single siRNA against human genes, 0.8 pmol siRNA per well
- Duration: 72 h
- Detection: 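Luciferase light (ONE-Glo) measured on one replicate plate set and viability (CellTiter-Glo) on the other, scaled to a negative control siRNA, with robust z-scores and luciferase per cell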
- Scale: total luciferase, z-score: higher = more reporter protein produced
- Call rule: 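An siRNA counts as active if its total luciferase robust z-score exceeds 3; genes with two or more such siRNAs out of three were retested with fresh siRNAs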
- Calls: active = raised luciferase; inactive = no rise
Here is an unselected part of about 59,000 reagents. In the full data, about 1,510 (2.6%) were called active. 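Calls use total luciferase alone and ignore viability, so some active siRNAs may act by altering cell number.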 A number with no mark means an inactive call. Reagents against one gene are numbered here. Not all columns of the deposit are shown. Reagent sequences are not shown.

Knock-down of LINC02120 #1 gave: total luciferase, z-score 1.81. LINC02120 #2 showed total luciferase, z-score 4.9 (active). For LINC02120 #3, the values are total luciferase, z-score 2.94. Against PHF8 #1 the deposit lists total luciferase, z-score 0.751. PHF8 #2 showed total luciferase, z-score 0.139. For PHF8 #3, the values are total luciferase, z-score 1.89.

Knock-down of MKRN2 #1 gave: total luciferase, z-score -0.771. MKRN2 #2 gave total luciferase, z-score 1.12. Against MKRN2 #3, the entry reads total luciferase, z-score 0.657. For CHKA #1 the deposit lists total luciferase, z-score 0.043. CHKA #2 showed total luciferase, z-score 3.19 (active). Silencing of CHKA #3 resulted in: total luciferase, z-score -0.0155.

Knock-down of TGFBR2 #1 gave: total luciferase, z-score 0.266. With knock-down of TGFBR2 #2, the screen gave total luciferase, z-score -0.209. TGFBR2 #3 gave total luciferase, z-score 0.423. With knock-down of GPHN #1, the screen gave total luciferase, z-score 0.0873. Against GPHN #2 the deposit lists total luciferase, z-score 1.95. Depletion of GPHN #3 resulted in: total luciferase, z-score -0.371.

For PCDHGB7 #1 the deposit lists total luciferase, z-score -0.156. PCDHGB7 #2 gave total luciferase, z-score -0.647. Against PCDHGB7 #3, the entry reads total luciferase, z-score 0.346. After knock-down of TMEM86B #1, the screen gave total luciferase, z-score -0.371. After knock-down of TMEM86B #2, the record shows total luciferase, z-score 1.71. Silencing of TMEM86B #3 gave: total luciferase, z-score 2.69.

Depletion of TSEN34 #1 gave: total luciferase, z-score -0.159. With knock-down of TSEN34 #2 the results were total luciferase, z-score -1.03. After knock-down of TSEN34 #3, the screen gave total luciferase, z-score 0.23. Against RBL1 #1, the entry reads total luciferase, z-score 1.6. Against RBL1 #2, the values are total luciferase, z-score 0.763. Against RBL1 #3, the entry reads total luciferase, z-score 0.76.

Knock-down of SSX1 #1 came out at: total luciferase, z-score -1.11. SSX1 #2 showed total luciferase, z-score 1.93. With knock-down of SSX1 #3, the record shows total luciferase, z-score -2.1.

Part of the list above, reformatted.
{"Gene":"PCDHGB7","reagent no.":2,"total luciferase, z-score":-0.647}
{"Gene":"PCDHGB7","reagent no.":3,"total luciferase, z-score":0.346}
{"Gene":"TMEM86B","reagent no.":1,"total luciferase, z-score":-0.371}
{"Gene":"TMEM86B","reagent no.":2,"total luciferase, z-score":1.71}
{"Gene":"TMEM86B","reagent no.":3,"total luciferase, z-score":2.69}
